# Some entries repeat one wording, which the source may state once for all of them.
# Test system: cyno C16orf54
# Experiment: Flow cytometry cross-reactivity with sarcoma cells expressing cyno C16orf54 (fold change over isotype)
# Format: binding, cynomolgous monkeys
# Conditions: 10 μg/ml antibody
# Experimental: Anti-C16orf54 antibodies which bound to human C16orf54 were tested for their reactivity with human C16orf54 and their crossreactivity with C16orf54 from cynomolgous monkeys (cyno C16orf54) using flow cytometry. Sarcoma cells transfected with and expressing human C16orf54 or cyno C16orf54 were washed with PBS with 0.1% BSA, incubated with FcX receptor blocking solution (BioLegend) for 15 minutes, incubated with 10 μg/ml of anti-C16orf54 antibody for 1 hour at 4° C., washed twice with PBS with 0.1% BSA, incubated with 20 μg/ml of R-Phycoerythrin-AffiniPure F(ab′)2 Fragment Goat Anti-Mouse IgG, Fcγ Fragment Specific (Jackson ImmunoResearch) for 30 minutes at 4° C., washed twice with PBS with 0.1% BSA, incubated with the viability dye TO-PRO-3 iodide (Life Technologies), and immediately analyzed on a MACSQuant Analyzer instrument (Miltenyi). For each cell line and anti-C16orf54 antibody, a fold change was derived by dividing the median fluorescence intensity for Phycoerythrin in the live cell population for the anti-C16orf54 antibody by the median fluorescence intensity for Phycoerythrin in the live cell population for the IgG isotype control antibody.
row,Molecule,binding to (crossreactivity with) cyno C16orf54 (flow cytometry)
1,"R29-8-57B: murine anti-C16orf54 monoclonal antibody; VH SEQ ID NO: 20, VL SEQ ID NO: 22 (antibody, V domains shown, R29-8-57B heavy chain variable region; R29-8-57B light chain variable region) VH: MRVLILLWLFTAFPGILSDVQLQESGPGLVKPSQSLSLTCTVTGYSITSDYAWNWIRQFPGNKLEWMGYINYSGSTRYNPSLKSRISITRDTSKNHFFLQLNSVTPEDTATYHCARERYDGVYYGMDYWGQGTSVTVSS VL: MDSQAQVLMSLLLWVSGTCGDIVMSQSPSSLAVSVGEKVTMSCKSSQSLLYSSNQKNYLAWYQQKPGQSPKLLIYWASTRESGVPDRFTGSGSGTDFTLTISSVKTEDLAVYYCQQYYSYRTFGGGTKLEIK","bind (e.g., are crossreactive with) cyno C16orf54"
2,"R29-8-136C: murine anti-C16orf54 monoclonal antibody; VH SEQ ID NO: 16, VL SEQ ID NO: 18 (antibody, V domains shown, R29-8-136C heavy chain variable region; R29-8-136C light chain variable region) VH: MRVLILLWLFTAFPGILSDVQLQESGPGLVKPSQSLSLTCTVTGYSITSDYAWNWIRQFPGNKLEWMGYINYSGSSRYNPSLKSRISITRDTSKNHFFLQLNSVTPEDTATYHCARERYDGVYYGMDYWGQGTSVTVSS VL: MDSQAQVLMSLLLWVSGTCGDIVMSQSPSSLAVSVGEKVTMSCKSSQSLLYSSNQKNYLAWYQQKPGQSPKLLIYWASTRESGVPDRFTGSGSGTDFTLTISSVKTEDLAVYYCQQYYSYRTFGGGTKLEIK","bind (e.g., are crossreactive with) cyno C16orf54"
3,"R29-7-1C: murine anti-C16orf54 monoclonal antibody, IgG2a; VH SEQ ID NO: 8, VL SEQ ID NO: 10 (antibody, V domains shown, R29-7-1C heavy chain variable region; R29-7-1C light chain variable region) VH: MRVLILLWLFTAFPGILSDVQLQESGPGLVKPSQSLSLTCTVTGYSITSDYAWNWIRQFPGNKLEWMGYISYSGSIRYNPSLKSRISITRDTSKNQFFLQLNSVTTEDTATYYCAREKYDNYYYAMDYWGQGTSVTVSS VL: MDSQAQVLMLLLLWVSGTCGDIVMSQSPSSLAVSVGEKVTLSCKSSQNLLYSTNQKNYLAWYQQKPGQSPKLLIYWASTRESGVPDRFTGSGSGTDFTLTISSVKAEDLAVYYCQQYYSYRTFGGGTKLEIK","bind (e.g., are crossreactive with) cyno C16orf54"
4,"R29-67-7A: murine anti-C16orf54 monoclonal antibody, IgG2a; VH SEQ ID NO: 12, VL SEQ ID NO: 14 (antibody, V domains shown, R29-67-7A heavy chain variable region; R29-67-7A light chain variable region) VH: MRVLILLWLFTAFPGILSDVQLQESGPGLVKPSQSLSLTCTVTGYSITSDYAWNWIRQFPGNKLEWMGYINYSGRTRYNPSLNSRISLTRDTSTNQFFLQLNSVTTEDTATYYCARENYDYEFYAMDYWGQGTSVTVSS VL: MESQAQVLMLLLLWVSGTCGDIVMSQSPSSLAVSVGEKVTMSCKSSQNLLYSSNQKNYLAWYQQKPGQSPKLLIYWASTRESGVPDRFTGSGSGTDFTLTISSVKAEDLAVYYCQQYYIYRTFGGGTKLEIK","bind (e.g., are crossreactive with) cyno C16orf54"
5,"R29-7-2A: murine anti-C16orf54 monoclonal antibody, IgG2b; VH SEQ ID NO: 4, VL SEQ ID NO: 6 (antibody, V domains shown, R29-7-2A heavy chain variable region; R29-7-2A light chain variable region) VH: MLLGLKWVFFVVFYQGVPCEVQLVESGGGLIQPKGSLKLSCVASGFSFNTHAMNWVRQAPGKGLEWVARIRSKSNNYARYYADSVKDRFTISRDDSQSILYLQMNNLKTEDTAMYYCVKQGDGGFAYWGQGTLVTVSA VL: MDSQAQVLMLLLLWVSGTCGDIVMSQSPSSLAVSVGEKVTMSCKSSQSLLYSSNQKNYLAWYQQRPGQSPKLLIYWASARESGVPDRFTGSGSGTDFTLTISSVKAEDLAVYYCQQYYSYPPTFGAGTKVELK","bind (e.g., are crossreactive with) cyno C16orf54"

# — patent US20150231240A1, “ANTI-C16ORF54 ANTIBODIES AND METHODS OF USE THEREOF” (priority 2012, published 2015)
